{"source": "PubChem BioAssay AID1159578 (Peter MacCallum Cancer Centre, 2015)", "assay": "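Knock-downs that alter how fast lymphatic endothelial cells migrate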 (primary screen)", "system": "human lymphatic endothelial cells", "knock-down reagent": "siRNA pool against human genes, 40 nM", "timing": "48 h after transfection", "read-out": "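Cells stained with dye and imaged after a scratch; covered wound area and nuclei counted, duplicates averaged, migration set against mock wells and turned into a robust z-score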", "direction": "migration robust z-score: higher = faster migration into the scratch; nuclei per well: higher = more cells in the well", "active means": "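Migration changed when robust z exceeds 2 or falls below -2 and mean nuclei number is at least 3300; otherwise not called changed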", "meaning of the calls": "active = migration changed; inactive = no migration change, or too few cells", "note": "The deposit covers about 18,000 reagents; below is a part drawn at random. Of all reagents, about 1,030 (5.7%) are marked active. 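Inactive calls also include pools with fewer than 3300 nuclei, whose migration was not assessed.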 Raw values are not corrected between plates. A number with no mark means an inactive call. Further read-outs or replicates are left out here. Reagent sequences are not shown."}
{"target gene": "BRD4", "migration robust z-score": -0.18, "nuclei per well, duplicate mean": 4698}
{"target gene": "SYNGR4", "migration robust z-score": -0.7, "nuclei per well, duplicate mean": 4526}
{"target gene": "AP3D1", "migration robust z-score": 1.42, "nuclei per well, duplicate mean": 4662}
{"target gene": "RFPL3", "migration robust z-score": 0.72, "nuclei per well, duplicate mean": 6735}

Continued (2 carried over from the part before).
{"target gene": "AP3D1", "migration robust z-score": 1.42, "nuclei per well, duplicate mean": 4662}
{"target gene": "RFPL3", "migration robust z-score": 0.72, "nuclei per well, duplicate mean": 6735}
{"target gene": "WNT4", "migration robust z-score": -0.42, "nuclei per well, duplicate mean": 5672}
{"target gene": "FAN1", "migration robust z-score": -0.64, "nuclei per well, duplicate mean": 5852}
{"target gene": "RARG", "migration robust z-score": 0.16, "nuclei per well, duplicate mean": 5127}
{"target gene": "PERP", "migration robust z-score": 0.55, "nuclei per well, duplicate mean": 6124}
{"target gene": "GLI3", "migration robust z-score": 0.1, "nuclei per well, duplicate mean": 4034}
{"target gene": "RRAGD", "migration robust z-score": -0.32, "nuclei per well, duplicate mean": 5386}
{"target gene": "SLC19A4P", "migration robust z-score": -1.7, "nuclei per well, duplicate mean": 4036}
{"target gene": "NSD2", "migration robust z-score": 0.36, "nuclei per well, duplicate mean": 4560}
{"target gene": "KNSTRN", "migration robust z-score": 0.7, "nuclei per well, duplicate mean": 6574}
{"target gene": "UQCRQ", "migration robust z-score": 0.29, "nuclei per well, duplicate mean": 5535}
